Chains of the proteins cited; added tags and fusions are not shown.
UniProt P51677, whole entry: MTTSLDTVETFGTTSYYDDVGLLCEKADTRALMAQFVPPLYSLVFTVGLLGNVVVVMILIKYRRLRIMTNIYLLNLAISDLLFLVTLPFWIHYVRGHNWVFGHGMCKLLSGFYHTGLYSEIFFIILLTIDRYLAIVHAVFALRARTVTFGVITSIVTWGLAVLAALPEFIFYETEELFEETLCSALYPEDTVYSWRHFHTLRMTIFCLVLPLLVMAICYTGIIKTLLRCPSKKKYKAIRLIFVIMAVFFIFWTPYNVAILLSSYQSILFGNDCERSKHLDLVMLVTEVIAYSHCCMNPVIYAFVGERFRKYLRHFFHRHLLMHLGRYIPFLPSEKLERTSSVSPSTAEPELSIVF

In US9206186B2, “2-phenoxy- and 2-phenylsulfonamide derivatives with CCR3 antagonistic activity for the treatment of inflammatory or immunological disorders” (AXIKIN PHARMACEUTICALS, INC., priority 2003, dated 2015):

What was measured:
Human CCR3 [1] = biological target: T1, Human CCR3 (Homo sapiens, UniProt P51677); assay: Calcium mobilization assay (Ca2+), eotaxin-stimulated human CCR3-transformed K562 cells; conditions: read-out: Activity grade IC50, compounds of about 40 to 90% purity, tested form: 2 HCl
Protocol: (§1) • Human CCR3-transformed K562 cells were used. The cloned CCR3 cDNA was constructed with pcDNA3 vector and transfected into a K562 cell line. The human CCR3-transformed K562 cells were maintained in RPMI-1640 (Cat.#22400-089, Life Technologies) supplemented with 10% FCS (Cat.#A-1115-L, Hyclone), 55 μM 2-mercaptoethanol (Cat.#21985-023, Life Technologies), 1 mM sodium pyruvate (Cat.#11360-070, Life Technologies), 100 units/ml of penicillin G and 100 μg/ml of streptomycin (Cat.#15140-122, Life Technologies), and 0.4 mg/ml of Geneticin (Cat.#10131-035, Life Technologies) (hereinafter called “culture medium”). Before the receptor binding assay, cells were pretreated with 5 mM sodium butyrate (Cat.#193-01522, Wako)-containing the culture medium (2×10^5 cells/ml) for 20-24 hours to increase the expression of CCR3. […] The non-specific binding was determined by parallel incubation in the presence of 500 nM of non-labeled eotaxin (Cat.#23209, Genzyme Techne). The radioactivities remained on the filter were measured by liquid scintillation counter (TopCount™, Packard) after an addition of 45 μl/well of scintillant (Microscint20, Cat.#6013621, Packard). The inhibition percent at each concentration of compound was calculated, and IC50 values were determined from the inhibition curve. […]

Human CCR3 [2] = biological target: T1, Human CCR3; assay: Receptor binding assay (RBA), [125I]-eotaxin on human CCR3-transformed K562 cells; conditions: read-out: Activity grade CCR3, compounds of about 40 to 90% purity, tested form: 2 HCl
Protocol: [Determination of IC50 Values of Compounds in Receptor Binding Assay]
as §1

Structure (SMILES): N#Cc1ccc(Oc2cc(Cl)cc(Cl)c2)c(S(=O)(=O)N2CCNCC2CN)c1 (centres unmarked)
- IC50 (Human CCR3 [1]): < 100 nM
- IC50 (Human CCR3 [2]): < 100 nM

Structures were worked out from names or drawings and are uncertain.
